At least one structure is not confirmed: it was looked up by name or label, or the drawing left a doubt. Starred links: 1 amine or outer side, 2 acyl side, 3 side chain; linkers in the order of their positions; H or OH if unused. Positions of bridges follow the written chain, without caps; N, C: chain ends. Residues, ends and D or L forms follow the SMILES beside them. X1 = O=C(C[*:2])Nc1cccc(C(=O)[*:1])c1
Assays:
VEGFR2 [1] = molecular target: T1, VEGFR2 (Homo sapiens, UniProt P35968); assay: VEGF-dependent VEGFR2 auto-phosphorylation in HUVEC, dot blotting; type: cell-based; design: HUVEC cells were treated for 15 minutes with L1 or BL1 varied in concentration; endogenous in cells; host or cells: HUVEC; conditions: peptide 15 minutes then 10 ng/mL VEGF 7 minutes, read-out: IC50, inhibition of auto-phosphorylation of VEGFR2 stimulated with VEGF
VEGFR2 [2] = molecular target: T1, VEGFR2; assay: Binding of cyclic peptide to human VEGFR2 by BLI method (ForteBio); design: Fc (fusion partner); conditions: VEGFR2-Fc fusion immobilized, 30° C., read-out: Kd, dissociation constant for human VEGFR2
Method: (§1) A dissociation constant of binding between the cyclic peptide L1 or BL1 thus synthesized and human VEGFR2 or mouse VEGFR2 was determined by BLI method (ForteBio). A fusion protein of VEGFR2 and Fc was immobilized onto Anti-human IgG Capture Biosensors and the cyclic peptide L1 or BL1 varied in concentration was analyzed. The temperature was set at 30° C.

The chains behind the UniProt entries cited, without tags or fusion partners. Residues count along the entry.
UniProt P35968, 20-1356: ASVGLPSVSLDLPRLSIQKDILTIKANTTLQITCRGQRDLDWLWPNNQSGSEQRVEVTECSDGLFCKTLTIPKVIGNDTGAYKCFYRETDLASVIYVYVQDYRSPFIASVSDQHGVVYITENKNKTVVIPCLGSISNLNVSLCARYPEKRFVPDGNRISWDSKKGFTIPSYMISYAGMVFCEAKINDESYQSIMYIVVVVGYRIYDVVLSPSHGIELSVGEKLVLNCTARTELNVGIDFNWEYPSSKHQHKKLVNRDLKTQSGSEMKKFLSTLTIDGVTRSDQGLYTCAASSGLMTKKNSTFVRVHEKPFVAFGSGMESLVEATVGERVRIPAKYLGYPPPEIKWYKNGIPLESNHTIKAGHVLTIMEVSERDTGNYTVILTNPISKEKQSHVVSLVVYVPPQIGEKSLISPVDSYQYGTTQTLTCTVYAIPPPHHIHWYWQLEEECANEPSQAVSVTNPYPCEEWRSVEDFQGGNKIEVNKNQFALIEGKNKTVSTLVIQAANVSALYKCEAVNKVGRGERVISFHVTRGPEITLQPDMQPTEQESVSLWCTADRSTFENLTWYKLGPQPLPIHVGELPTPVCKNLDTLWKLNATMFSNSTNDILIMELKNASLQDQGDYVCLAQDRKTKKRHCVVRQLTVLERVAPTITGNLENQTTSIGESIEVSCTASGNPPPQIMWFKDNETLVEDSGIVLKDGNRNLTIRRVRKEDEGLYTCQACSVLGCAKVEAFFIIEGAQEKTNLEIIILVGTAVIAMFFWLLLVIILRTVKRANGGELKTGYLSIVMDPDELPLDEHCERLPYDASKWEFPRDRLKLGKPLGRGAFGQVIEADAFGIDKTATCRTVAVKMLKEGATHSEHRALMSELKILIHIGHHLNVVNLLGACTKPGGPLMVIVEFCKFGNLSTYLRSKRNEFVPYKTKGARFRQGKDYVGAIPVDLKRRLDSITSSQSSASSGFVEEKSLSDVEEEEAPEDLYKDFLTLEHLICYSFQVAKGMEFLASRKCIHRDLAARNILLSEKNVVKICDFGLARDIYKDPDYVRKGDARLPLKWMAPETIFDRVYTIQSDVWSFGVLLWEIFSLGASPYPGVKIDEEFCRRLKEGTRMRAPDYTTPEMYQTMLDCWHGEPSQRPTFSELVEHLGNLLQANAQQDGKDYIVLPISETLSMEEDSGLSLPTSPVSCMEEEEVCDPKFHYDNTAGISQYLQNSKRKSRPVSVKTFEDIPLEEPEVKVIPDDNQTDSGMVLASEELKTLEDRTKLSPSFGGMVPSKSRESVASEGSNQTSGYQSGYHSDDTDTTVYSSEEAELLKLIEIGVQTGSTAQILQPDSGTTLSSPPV
UniProt P35968, 20-764 limits assumed: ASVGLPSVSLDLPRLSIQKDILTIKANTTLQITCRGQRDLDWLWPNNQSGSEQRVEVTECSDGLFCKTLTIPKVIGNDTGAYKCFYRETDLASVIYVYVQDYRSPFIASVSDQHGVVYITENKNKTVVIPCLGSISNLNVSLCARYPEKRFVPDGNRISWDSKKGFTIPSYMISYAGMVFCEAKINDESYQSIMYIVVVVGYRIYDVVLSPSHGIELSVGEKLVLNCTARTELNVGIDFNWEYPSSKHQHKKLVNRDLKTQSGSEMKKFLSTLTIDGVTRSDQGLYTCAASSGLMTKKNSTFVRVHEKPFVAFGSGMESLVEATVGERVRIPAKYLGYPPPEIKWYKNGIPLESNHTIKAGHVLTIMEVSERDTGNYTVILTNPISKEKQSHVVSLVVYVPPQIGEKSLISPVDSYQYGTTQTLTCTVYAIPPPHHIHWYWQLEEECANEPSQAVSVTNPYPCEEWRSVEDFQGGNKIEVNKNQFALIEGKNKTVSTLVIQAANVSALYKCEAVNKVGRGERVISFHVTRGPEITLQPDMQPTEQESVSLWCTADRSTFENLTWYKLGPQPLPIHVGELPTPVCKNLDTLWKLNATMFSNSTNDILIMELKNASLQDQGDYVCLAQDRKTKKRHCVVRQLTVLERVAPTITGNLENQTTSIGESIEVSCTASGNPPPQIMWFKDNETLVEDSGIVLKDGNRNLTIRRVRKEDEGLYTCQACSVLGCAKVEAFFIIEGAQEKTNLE
UniProt P35918, 20-762 limits assumed: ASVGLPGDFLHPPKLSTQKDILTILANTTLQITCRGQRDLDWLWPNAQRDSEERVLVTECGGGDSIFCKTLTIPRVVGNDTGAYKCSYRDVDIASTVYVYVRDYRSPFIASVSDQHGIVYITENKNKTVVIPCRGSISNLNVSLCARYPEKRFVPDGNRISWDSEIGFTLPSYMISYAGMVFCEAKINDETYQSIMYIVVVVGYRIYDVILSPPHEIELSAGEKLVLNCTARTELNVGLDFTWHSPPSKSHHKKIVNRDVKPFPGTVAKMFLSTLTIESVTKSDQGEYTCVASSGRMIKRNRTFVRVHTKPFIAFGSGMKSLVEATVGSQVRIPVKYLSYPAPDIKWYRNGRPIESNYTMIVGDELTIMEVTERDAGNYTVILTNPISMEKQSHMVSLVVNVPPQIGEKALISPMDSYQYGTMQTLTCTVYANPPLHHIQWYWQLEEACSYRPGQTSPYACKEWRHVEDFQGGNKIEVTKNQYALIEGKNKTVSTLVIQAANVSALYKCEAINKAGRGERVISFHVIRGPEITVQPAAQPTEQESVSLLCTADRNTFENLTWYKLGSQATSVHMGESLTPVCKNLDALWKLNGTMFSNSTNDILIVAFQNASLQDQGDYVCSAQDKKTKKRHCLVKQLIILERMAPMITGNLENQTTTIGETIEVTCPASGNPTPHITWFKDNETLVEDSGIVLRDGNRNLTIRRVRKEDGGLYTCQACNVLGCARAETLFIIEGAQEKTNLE

mouse VEGFR2 = molecular target: T2, mouse VEGFR2 (Mus musculus, UniProt P35918); assay: Binding of cyclic peptide to mouse VEGFR2 by BLI method (ForteBio); conditions: VEGFR2-Fc fusion immobilized, 30° C., read-out: Kd, dissociation constant for mouse VEGFR2
T2 construct: Fc (fusion partner)
Method: as §1

SMILES	IC50 (VEGFR2 [1]) [nM]	Kd (VEGFR2 [2]) [nM]	Kd (mouse VEGFR2) [nM]
CC[C@H](C)[C@@H]1NC(=O)[C@H](Cc2ccccc2)NC(=O)c2cccc(c2)NC(=O)CSC[C@@H](C(=O)NCC(N)=O)NC(=O)[C@H](CCCNC(=N)N)NC(=O)[C@H](CCC(=O)O)NC(=O)[C@H](CC(C)C)NC(=O)[C@H](CO)NC(=O)[C@H]([C@@H](C)CC)NC(=O)[C@@H]2CCCN2C(=O)[C@H](Cc2c[nH]cn2)NC(=O)[C@H](C(C)C)NC(=O)[C@H](CCCCN)NC(=O)[C@H](C(C)C)NC(=O)[C@H](CCCNC(=N)N)NC(=O)[C@H](Cc2ccc(O)cc2)NC(=O)[C@H](Cc2c[nH]cn2)NC(=O)CNC1=O [BL1, MCAB-L-Phe-Ile-Gly-His-Tyr-Arg-Val-Lys-Val-His-Pro-Ile-Ser-Leu-Glu-Arg-Cys] (FIGHYRVKVHPISLERCG-NH2; linker N-17 via X1)	20	8	8
CC[C@H](C)[C@@H]1NC(=O)[C@H](Cc2ccc(O)cc2)NC(=O)[C@H](CC(C)C)NC(=O)CNC(=O)[C@H](CC(N)=O)NC(=O)[C@H](C(C)C)NC(=O)[C@H](Cc2c[nH]c3ccccc23)NC(=O)[C@@H]2CCCN2C(=O)[C@H](CC(=O)O)NC(=O)[C@H]([C@@H](C)O)NC(=O)[C@H](CO)NC(=O)[C@H](C(C)C)NC(=O)[C@H](C(C)C)NC(=O)[C@H](C(C)C)NC(=O)[C@H](Cc2ccccc2)NC(=O)CSC[C@@H](C(=O)NCC(N)=O)NC(=O)[C@H](CC(=O)O)NC1=O [L1, ClAc-L-Phe-Val-Val-Val-Ser-Thr-Asp-Pro-Trp-Val-Asn-Gly-Leu-Tyr-Ile-Asp-Cys]	50	–	–

Source: US9815867B2, “Peptide for inhibiting vascular endothelial growth factor receptor” (The University of Tokyo, priority 2012, dated 2017)
